Toxoplasma: 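Assay of Toxoplasma gondii numbers, read through their beta-galactosidase reporter with a colour substrate. Compounds at 10 µM. The record gives no direction; the compounds picked for IC50 retests had high values, so higher reads as fewer parasites. About 67,000 compounds were tested under these conditions; 0.38% (about 260) showed 50% or more at least once.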
TcHisRS: 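Enzyme assay of histidyl-tRNA synthetase; the read-out is not stated. Target: Histidine-tRNA ligase, Trypanosoma cruzi CL Brener (UniProt Q4DA54). Tested at 30 µM. Higher reads as stronger inhibition (inferred: compounds with an IC50 in retests scored well above the rest). Of about 69,000 compounds tested this way, about 31 (0.045%) reached 50% or more in at least one test.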
CoaBC: 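Coenzyme A biosynthesis protein CoaBC, Mycobacterium tuberculosis (UniProt P9WNZ1). Enzyme assay of CoaBC with a phosphate dye (Biomol Green) read at 650 nm. Tested at 30 µM. Direction is inferred from only a few compounds that gave an IC50; most scored high, so higher reads as stronger inhibition. Most strong results did not repeat in a second test. Of about 67,000 compounds tested this way, about 40 (0.06%) reached 50% or more in at least one test.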
Leishmania in macrophages: 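Cell assay of Leishmania donovani living inside macrophages; the read-out is not stated. Tested at 30 µM. Higher reads as stronger inhibition (inferred: compounds with an IC50 in retests scored well above the rest). Of about 69,000 compounds tested this way, about 1,000 (1.5%) reached 50% or more in at least one test.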

By UniProt entry, the sequences of proteins in these tests, tags left out. Residues count along the entry.
UniProt Q4DA54, 1-478: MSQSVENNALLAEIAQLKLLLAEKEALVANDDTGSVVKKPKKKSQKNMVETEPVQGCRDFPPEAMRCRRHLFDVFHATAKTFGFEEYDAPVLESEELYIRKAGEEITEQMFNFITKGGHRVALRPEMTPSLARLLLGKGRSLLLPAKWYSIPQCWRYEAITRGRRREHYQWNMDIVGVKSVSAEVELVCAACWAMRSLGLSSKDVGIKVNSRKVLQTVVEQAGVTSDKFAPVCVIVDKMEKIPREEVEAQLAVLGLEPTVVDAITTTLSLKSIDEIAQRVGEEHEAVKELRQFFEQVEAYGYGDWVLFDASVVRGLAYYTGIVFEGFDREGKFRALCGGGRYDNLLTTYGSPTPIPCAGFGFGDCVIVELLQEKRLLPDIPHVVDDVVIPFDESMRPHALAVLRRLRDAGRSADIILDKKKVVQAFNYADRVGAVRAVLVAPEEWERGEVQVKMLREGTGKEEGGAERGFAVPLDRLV
UniProt P9WNZ1, whole entry: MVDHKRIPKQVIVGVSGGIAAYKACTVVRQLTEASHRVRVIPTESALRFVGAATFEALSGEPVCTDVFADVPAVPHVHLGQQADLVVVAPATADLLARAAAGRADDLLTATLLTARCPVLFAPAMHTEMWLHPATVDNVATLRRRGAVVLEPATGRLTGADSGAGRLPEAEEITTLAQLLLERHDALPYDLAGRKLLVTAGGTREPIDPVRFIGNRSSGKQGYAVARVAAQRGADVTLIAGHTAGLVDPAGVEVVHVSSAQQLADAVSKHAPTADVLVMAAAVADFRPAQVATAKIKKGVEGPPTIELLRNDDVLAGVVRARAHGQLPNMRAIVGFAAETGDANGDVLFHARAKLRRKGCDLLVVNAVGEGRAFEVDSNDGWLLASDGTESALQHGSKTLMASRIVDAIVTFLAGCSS

Values are the deposited “Percent Effect”, in %. The record does not define 0% and 100%; most values in the screen are far below 50% and negative numbers occur (in some assays of this library far below -100). The compounds are a random part of those screened. Two or more numbers in one place are separate tests of the same structure; such repeats can differ widely. A dash means the value is not listed here; it may have been measured.

| # | structure | Toxoplasma | TcHisRS | CoaBC | Leishmania in macrophages |
|---|---|---|---|---|---|
| 1 | `CCNC(=O)CCC(=O)NC(C)Cc1ccccc1Br` (centres unmarked) | 28.21% | -0.5128% | 1.739% | 6.814% |
| 2 | `Cc1ccccc1N1CC(c2nnc(N)s2)CC1=O` (centres unmarked) | 30.76% | -0.4464% | 3.316% | 1.789% |
| 3 | `Cc1ccc(CC2COc3ccccc3C2)c(N)n1` (centres unmarked) | 20.42% | 7.772% | -2.357% | 3.448% |
| 4 | `CC1CCN(S(=O)(=O)NC(C)Cc2ccco2)CC1` (centres unmarked) | 0.2378% | 3.448% | 3.871% | -43.25% |
| 5 | `N#Cc1cc(F)ccc1CN1CCCC1Cn1cccn1` (centres unmarked) | 10.94% | 9.942% | 4.847% | 28.99% |
| 6 | `Cc1nnn2c1COC(CNCc1ccccn1)C2.O=C(O)C(F)(F)F` (centres unmarked) | -3.591% | - | - | 18.45% and 9.238% |
| 7 | `COc1cc(N2C[C@H]3CN(CCN4CCCC4)C(=O)[C@H]3C2)ncn1` | - | 2.532% | - | - |
| 8 | `CC(=O)N1CCC(NC[C@H]2Cn3c(-c4ccccc4)cnc3CO2)CC1` | -1.78% | 4.348% | -1.104% | 10.7% |
| 9 | `O=C(c1cscn1)N1CCC2(CN(Cc3ccoc3)C2)C1` | - | 1.754% | 6.042% | - |
| 10 | `CN(C(=O)c1cccc(C(=O)NCC(F)(F)F)c1)c1ccccc1` | 19.39% | 4.184% | -254.6% | -3.623% |
| 11 | `CS(=O)(=O)Cc1nc(CN2CCCc3sccc3C2)cs1` | 17.35% | -0.5618% | 13.08% | -6.991% |
| 12 | `CC(C1CCN(Cc2cnn(C)c2C2CC2)CC1)N(C)C` (centres unmarked) | 18.59% | 5.195% | - | 5.106% |
| 13 | `CO[C@H]1C[C@@H](O)C12CCN(C(=O)NCc1ccco1)CC2` | 1.214% | 3.571% | -4.403% | 6.86% |
| 14 | `CNC(=O)CN(C)c1nc(-c2ccc(C(N)=O)cc2)nc2c1CCNC2` | 25.61% | 3.483% | 10.12% | -3.136% |
| 15 | `COc1cccc2[nH]cc(CCNC(=O)N3CCOCC3C3CC3)c12` (centres unmarked) | 5.015% | 5.051% | -2.269% | -20.73% |
| 16 | `Cc1nc(N2CCOCC2)nc2c1CCN(C(=O)C1CC1)CC2` | -7.095% | 7.317% | 7.268% | 28.24% |
| 17 | `CC(C)CCCNC(=O)Nc1ccc(Cl)c(C(N)=O)c1` | 4.04% | 4.274% | -12.06% | 16.39% |
| 18 | `CN(Cc1cccnc1)C[C@@H]1OC[C@H]2CN(Cc3ccco3)CC[C@H]21` | - | 7.609% | -9.346% | - |
| 19 | `O=C1CO[C@@H]2CN(S(=O)(=O)c3ccccc3F)C[C@H]2N1` | - | 0.5587% | 4.242% | - |
| 20 | `c1nc(CCC2CCCN2)cc(N2CCCOCC2)n1` (centres unmarked) | - | 3.784% | 0.8333% | - |
| 21 | `Cc1cnn(C2CN(c3ncnc4[nH]ccc34)C2)c1` | -2.632% | 3.867% | 5.357% | 22.46% |
| 22 | `CS(=O)(=O)N1CCCCCC1C1CCN(c2ncccc2C#N)CC1` (centres unmarked) | -2.682% | 4.183% | 0.7979% | 36.7% |
| 23 | `[H][C@@]12CCCCN(Cc3ccccc3)[C@]1([H])CN(c1ncccn1)C2` | 12.11% | - | - | 3.449% |
| 24 | `OCCNC1CCc2cc3c(cc21)OCCO3` (centres unmarked) | -0.1588% | 3.571% | -0.7353% | 2.631% |
| 25 | `[H][C@]12CC[C@]([H])(CN(CC(=O)N(C)C)C1)N(Cc1ccc3nsnc3c1)C2` | 8.194% | - | - | -3.81% |
| 26 | `CC(NC(=O)Cn1cccn1)c1cccnc1` (centres unmarked) | -2.753% | 4.564% | 7.143% | 4.43% |
| 27 | `CCc1ncc2c(n1)CN(Cc1nnc(C(C)C)o1)CC2` | 3.077% | 6.748% | 8.579% | -22.51% |
| 28 | `CC1CCC(NCCNC(=O)c2cccs2)CC1` (centres unmarked) | -1.378% | 1.521% | 0.3708% | 15.46% |
| 29 | `Cc1cncc(C(=O)N2CCCCC2c2nc[nH]n2)c1` (centres unmarked) | 2.456% | -3.279% | -7.09% | 23.48% |
| 30 | `[H][C@@]12C[C@H](C(=O)N(C)C)[C@@]([H])(CN(S(=O)(=O)CCC)C1)O2` | -34.22% | - | - | -7.047% |
| 31 | `O=C(O)C(F)(F)F.[H][C@@]12CN(CC(=O)N(C)C)C[C@]1([H])C(=O)N(Cc1cccc(F)c1)C2` | -6.647% | - | - | 24.74% |
| 32 | `CCCNC(=O)CN1CCC(NCc2csc(C(C)C)n2)CC1` | 7.509% | 6.154% | 0.4592% | 11.81% |
| 33 | `CN1CCN(C(=O)c2ccnc(N3CCOC(C(F)(F)F)C3)c2)CC1` (centres unmarked) | 33.4% | 7.921% | -5.06% | 47.28% |
| 34 | `O=C(c1ccoc1)N(Cc1cccnc1)C1CC1` | 11.59% | 0% | 3.027% | 22.13% |
| 35 | `CNC(=O)c1ccc(CN(C(=O)c2scnc2C)C2CC2)cc1` | 11.5% | 0.7634% | 4.404% | -15.19% |
| 36 | `Cc1ccc(CNC2CCN(CCc3ccncc3)CC2)s1` | 5.007% | 1.604% | -23.81% | 45.1% |
| 37 | `CCc1cc(NC(=O)C2CCCN(C(=O)c3ccncc3)C2)[nH]n1` (centres unmarked) | 1.236% | 6% | -1.453% | -19.5% |

The first 2 entries again:

| structure | Toxoplasma | TcHisRS | CoaBC | Leishmania in macrophages |
|---|---|---|---|---|
| `CCNC(=O)CCC(=O)NC(C)Cc1ccccc1Br` (centres unmarked) | 28.21% | -0.5128% | 1.739% | 6.814% |
| `Cc1ccccc1N1CC(c2nnc(N)s2)CC1=O` (centres unmarked) | 30.76% | -0.4464% | 3.316% | 1.789% |

Data taken from ChEMBL document CHEMBL3988442, “University of Dundee, Small-Polar-MMV Screening Library” (2021).